From paper PMC3776838, “Detection of Phospho-Sites Generated by Protein Kinase CK2 in CFTR: Mechanistic Aspects of Thr1471 Phosphorylation” (PLoS ONE, 2013)
No constants are given. Whether binding was seen depends on the method and setting. Some entries that bind do so weakly or less than the wild type.

The chains behind the UniProt entries cited, without tags or fusion partners.
UniProt P67870: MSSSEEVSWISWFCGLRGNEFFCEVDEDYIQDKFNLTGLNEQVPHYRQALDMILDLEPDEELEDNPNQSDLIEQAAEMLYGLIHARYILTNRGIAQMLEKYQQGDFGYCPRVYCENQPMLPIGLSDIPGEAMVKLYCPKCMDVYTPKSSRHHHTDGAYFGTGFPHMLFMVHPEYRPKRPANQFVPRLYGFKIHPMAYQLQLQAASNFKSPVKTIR

Target: Human CK2 β-subunit (human) (UniProt P67870)
Test: reconstitution and co-purification (Heparin-Sepharose, size-exclusion chromatography); pellets of E. coli expressing CK2α and CK2β independently were mixed and lysed at 4°C in Tris/HCl 25 mM, pH 8, NaCl 0.4 M, DTT 1 mM; Heparin-Sepharose gradient 0.4–1 M NaCl; SEC in Tris/HCl 25 mM, pH 8, NaCl 0.5 M, DTT 1 mM

binding: binds
Substance: Human CK2 β-subunit (from UniProt P67870 1-215)
